Experimental data as given in PMC11430619.
Results are given in words; binding and its absence hold for the method and conditions named. In cells and extracts the contact can be indirect. A yes stands for co-enrichment or nearness to the bait. Other partners may have been found. A no says only that the protein was not detected with the bait. Tags and fused reporters may be left off the sequences shown.

By UniProt entry, the sequences of proteins in these tests, tags left out. Residues count along the entry.
UniProt Q8JZU2, residues 14-311: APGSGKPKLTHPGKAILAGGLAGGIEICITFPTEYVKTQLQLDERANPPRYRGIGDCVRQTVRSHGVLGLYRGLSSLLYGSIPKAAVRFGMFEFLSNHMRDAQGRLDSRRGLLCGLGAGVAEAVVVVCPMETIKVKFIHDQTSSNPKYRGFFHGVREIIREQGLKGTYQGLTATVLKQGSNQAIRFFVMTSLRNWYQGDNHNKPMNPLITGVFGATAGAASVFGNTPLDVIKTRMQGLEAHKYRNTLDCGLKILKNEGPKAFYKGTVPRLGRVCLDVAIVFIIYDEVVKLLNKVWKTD

T1: recombinant His6-tagged human SIRT2 protein (human) (UniProt Q8IXJ6)
T1 sequence: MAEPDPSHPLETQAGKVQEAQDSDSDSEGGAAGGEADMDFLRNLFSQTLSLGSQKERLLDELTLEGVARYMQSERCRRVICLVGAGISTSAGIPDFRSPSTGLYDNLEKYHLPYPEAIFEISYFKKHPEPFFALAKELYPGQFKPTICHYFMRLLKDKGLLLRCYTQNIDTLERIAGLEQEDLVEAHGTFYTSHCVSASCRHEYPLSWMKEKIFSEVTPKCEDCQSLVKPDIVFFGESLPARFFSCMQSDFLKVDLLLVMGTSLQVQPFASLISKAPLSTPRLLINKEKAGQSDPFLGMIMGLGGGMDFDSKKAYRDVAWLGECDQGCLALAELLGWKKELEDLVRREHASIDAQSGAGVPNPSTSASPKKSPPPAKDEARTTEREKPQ


These molecules were tested against T1, recombinant His6-tagged human SIRT2 protein (human) (assay: affinity purification with mass spectrometry; 1 mg Sirt2-/- liver homogenate in NP1 buffer (1% nonidet P-40, 300 mM NaCl, 50 mM Tris-HCl; protease inhibitors, NAM, TSA), pre-cleared with anti-His6, incubated with 20 ug rSIRT2-His6 at 37 C for 30 min; captured with anti-His6 on Protein A/G agarose overnight at 4 C, washed 3 times; gel bands identified by mass spectrometry; only the target purified).

binding	Molecule
binds	Slc25a1 (from UniProt Q8JZU2 14-311)
no binding	Slc25a42 (protein, UniProt Q8R0Y8 1-318) MGNGVQEGSVRLREDAEAVLAGAVSSKRDHRQVLSSLLSGALAGALAKTAVAPLDRTKIIFQVSSKRFSAKEAFRLLYFTYLNEGFLSLWRGNSATMVRVIPYAAIQFSAHEEYKRILGHYYGFRGEALPPWPRLLAGALAGTTAASLTYPLDLVRARMAVTPKEMYSNIFHVFIRISREEGLKTLYFGFTPTVLGVIPYAGLSFFTYESLKSLHREYSGRPQPYPFERMVFGACAGLIGQSASYPLDVVRRRMQTAGVTGHQHGSILSTLRSIVREEGAVRGLYKGLSMNWLKGPIAVGISFTTFDLMQILLRRLQS

Second part, the molecule before the results:

Molecule	binding
Slc25a5 (protein, UniProt P51881 1-298) MTDAAVSFAKDFLAGGVAAAISKTAVAPIERVKLLLQVQHASKQITADKQYKGIIDCVVRIPKEQGVLSFWRGNLANVIRYFPTQALNFAFKDKYKQIFLGGVDKRTQFWRYFAGNLASGGAAGATSLCFVYPLDFARTRLAADVGKAGAEREFKGLGDCLVKIYKSDGIKGLYQGFNVSVQGIIIYRAAYFGIYDTAKGMLPDPKNTHIFISWMIAQSVTAVAGLTSYPFDTVRRRMMMQSGRKGTDIMYTGTLDCWRKIARDEGSKAFFKGAWSNVLRGMGGAFVLVLYDEIKKYT	binds
Slc25a13 (protein, UniProt Q9QXX4 1-676) MAAAKVALTKRADPAELKAIFLKYASIEKNGEFFMSPHDFVTRYLNIFGESQPNPKTVELLSGVVDQTKDGLISFQEFVAFESVLCAPDALFMVAFQLFDKAGKGEVTFEDVKQIFGQTTIHQHIPFNWDSEFVQLHFGKERKRHLTYAEFTQFLLEIQLEHAKQAFVQRDNAKTGKVSAIDFRDIMVTIRPHVLTPFVEECLVAAAGGTRSHQVSFSYFNGFNSLLNNMELIRKIYSTLAGNRKDVEVTKEEFALAAQKFGQVTPMEVDILFQLADLYEPRGRMTLADIERIAPLEEGMLPFNLAEAQRQQKASGDAARPFLLQLAESAYRFGLGSIAGAVGATAVYPIDLVKTRMQNQRSTGSFVGELMYKNSFDCFKKVLRYEGFFGLYRGLLPQLLGVAPEKAIKLTVNDFVRDKFMHKDGSVPLLAEIFAGGCAGGSQVIFTNPLEIVKIRLQVAGEITTGPRVSALSVVRDLGFFGIYKGAKACFLRDIPFSAIYFPCYAHVKASFANEDGQVSPGSLLLAGAIAGMPAASLVTPADVIKTRLQVAARAGQTTYNGVTDCFRKILREEGPKALWKGVAARVFRSSPQFGVTLLTYELLQRWFYVDFGGVKPVGSEPVPKSRITLPAPNPDHVGGYKLAVATFAGIENKFGLYLPLFKPSASTSKVTAGDS	binds
